Source: PubChem BioAssay AID1347423 (Functional Genomics Laboratory (NCATS/FGL), 2020)
Out of some 52,000 sequences screened, about 210 (0.4%) were called active.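 Rule for the calls: active = gene whose silencing raises cell survival under the drug, median off-target-corrected z-score across its silencing RNAs 2 or more; inactive = the rest.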 This is one part of the list.

Test: Resistance to Poly (ADP-Ribose) Polymerase inhibitor: Gene Identification via Genome-wide siRNA Screen
Conditions: mouse BRCA2 R2336H ES cells, olaparib, CellTiter-Glo viability; hits give high values
Summary of the method: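 Genome-wide siRNA screen (3 siRNAs/gene, 20 nM) in mouse ES cells carrying hypomorphic BRCA2 R2336H; olaparib 500 nM added 48 h post-transfection, CellTiter-Glo viability 72 h later. Normalized to plate-median negative control; MAD z-scores, gene median, seed-adjusted.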

| Sequence | z-score |
| --- | --- |
| CCUUCCACACCUAUUCCAATT against Kcna2 | inactive: -0.803 |
| GGCUUACGAGAAAAUAGAATT against Phf8 | inactive: 1.14 |
| GGAUUGCUUCAAUGAGGAATT against C2a | inactive: -1.52 |
| CGCAUGACCUUCCAGAUGCTT against Myoz1 | inactive: -0.762 |
| GGAGGUAUUGUACAUCAAUTT against Nol4 | inactive: 2.07 |
| CGAGCUAUAUCCCAUGGAGTT against Penk1 | inactive: 0.605 |
| UGCCCAAGACUCAGAAGUCTT against Igf1 | inactive: 0.521 |
| CCAGAGAUUCCCACACGUCTT against Havcr1 | inactive: 0.264 |
| GCCAGGCUAUAUUUCAUCCTT against Asb15 | inactive: -0.164 |
| GCUAGCAUGCAUCUCUACATT against Asb17 | inactive: -0.431 |
| CCUGUUUACAAGGAAUUGATT against Itgb1 | inactive: 0.411 |
| CCCUAACUCUGUUAAUGCATT against Casp14 | inactive: -0.855 |
| GGAGAUACGCCGGAGACUATT against Olfr645 | inactive: -1.65 |
| GGACAUUUUCUUUGGAAAATT against Ccnl1 | inactive: -1.11 |
| GGCCACAGUGACUUUCAUCTT against Eif4el3 | inactive: 0.0281 |
| CCAGUGCUAGCUUCUACGATT against Dusp3 | inactive: -0.288 |
| GGGAGUCAACUCUAUUUAUTT against AW549877 | inactive: 0.41 |
| GGGAUUAUACUAAUCCAACTT against Wdrx1 | inactive: 0.255 |
| CCGAGUAAUUAACUAUAAGTT against 4930579C15Rik | inactive: -0.256 |
| CGCAAUAAAGAAUUCUCCCTT against 2810428I15Rik | inactive: -0.93 |
| CCUACGUGAUCAACAAGCATT against Frda | inactive: -0.29 |
| GGACAUUGACACUUCCCUGTT against P2rx5 | inactive: -1.59 |
| CGAAGGACCAGGGAAUCUGTT against Tsg-5 | inactive: -0.711 |

Quoted from the listing.
z-score with GGGAUUAUACUAAUCCAACTT against Wdrx1 is entered as inactive: 0.255
z-score with GGAGAUACGCCGGAGACUATT against Olfr645 is entered as inactive: -1.65

The list goes on.

| Sequence | z-score |
| --- | --- |
| GGAGAGAAAAACCAACAGCTT against Foxa1 | inactive: 2.88 |
| GGGCUUAAGGGUUUCUGUUTT against Hist1h3g | inactive: -0.444 |
| GGGCUCACCUCUCUCUUUGTT against 1110007H17Rik | inactive: -1.51 |
| CCGAAUGAGCUUUACCUAUTT against Ctsj | inactive: 0.341 |
| CGAGGUCCUUGAUUAUAUCTT against C2ta | inactive: 1.04 |
| GCCUCAAUAAAUUGUCAGCTT against Slc25a17 | inactive: 0.336 |
| GGUUUUAUGCAUUAGCUCCTT against Lipf | inactive: 0.442 |
| CCUUGGUGGAAUCGUUCCUTT against Timd2 | inactive: -1.49 |
| GGAACAGCAGCAGAGACAATT against Ppargc1a | inactive: 0.674 |
| GGAUGUUGGCCUCUUUCUCTT against MOR253-5 | inactive: 1.13 |
| CCAGAAUGUCUGUAAGGCATT against Rassf5 | inactive: -0.345 |
| CGGACAACUUUUGAAGCUGTT against Spata5l1 | inactive: 0.247 |
| GGUUGAUCGCCUUAGAAAUTT against Etnk2 | inactive: -1.35 |
| CGAGCUUUGCUUAAAAUCGTT against Pmp2 | inactive: -0.0483 |
| GCUUCCAUGCCCAUGGAUATT against Crybb2 | inactive: 0.427 |
| GGAAACUGAGCUUAAGAUUTT against Cald1 | inactive: 1.09 |
| GGUGUUUCAUAUGGUUACUTT against Psma3 | inactive: -3.53 |
| CCACGAGAGCCUAAAGCUUTT against Msh5 | inactive: 0.379 |
| GGAACAAAGAGGUGAUGUUTT against Olfr109 | inactive: -1.35 |
| GGAUUGUUGGUCCUCAAGUTT against Topbp1 | inactive: -2.32 |
| GGCUGAAGAGGAUCGGUACTT against Atpi | inactive: -1.39 |
| GGUGGAGUCUGGAAUUUCATT against Drd3 | inactive: -1.36 |
| GGCGAAAACGGUAAAGCCUTT against Hist1h1e | inactive: -0.576 |

Quoted at random: 4 records from the list.

| Sequence | z-score |
| --- | --- |
| CCUUGGUGGAAUCGUUCCUTT against Timd2 | inactive: -1.49 |
| CGAAGGACCAGGGAAUCUGTT against Tsg-5 | inactive: -0.711 |
| UGCCCAAGACUCAGAAGUCTT against Igf1 | inactive: 0.521 |
| GCUUCCAUGCCCAUGGAUATT against Crybb2 | inactive: 0.427 |

Next results

| Sequence | z-score |
| --- | --- |
| GGAUUUAUUUAUGUCUUCCTT against Slc17a1 | inactive: -0.427 |
| GGAGCUUUCAGCUAAGACATT against Rassf4 | inactive: -1.5 |
| GGAAGUGGUCAUAUUCACGTT against Jag2 | inactive: 0.104 |
| GGAAAACUCAUGAUCACUUTT against Robo1 | inactive: 1.26 |
| GCCUCUGGACUACUAUAGATT against Gale | inactive: 1.19 |
| GGCAAUGAACUGAGUUGCUTT against Ugt2a2 | inactive: 2.45 |
| GGUGAUCUUAGCAAUGUUUTT against Pdk2 | inactive: 0.103 |
| CCACCUCAAGAUAUGGAUGTT against D19Ertd703e | inactive: -0.916 |
| GGACAUUCGGCCCUAUUGCTT against Got1 | inactive: -1.54 |
| GCCACGAUUUGCCUUAUUUTT against Litaf | inactive: -0.894 |
| GGGCUUACCGUAUAACUUUTT against Sdfr1 | inactive: 0.331 |
| CGAGAACAACACUUGGAAUTT against Ubxd2 | inactive: 0.554 |
| GGAAAAUGUAAGGACUUGATT against Ear5 | inactive: -0.368 |
| GCAAUUCAGCUUAUAAGCATT against 1700007D05Rik | inactive: 0.221 |
| GGUGGGAGUCAUUUUCCGUTT against P2rx1 | inactive: -0.39 |
| GGGAAACUCUCAGAUGAAGTT against 4933412E14Rik | inactive: -1.78 |
| GGAGAAUCAAAGAAGAAGATT against Xpc | inactive: -0.45 |
| GGCAUUUAGUAAAACCCUUTT against Rnf144 | inactive: -1.2 |
| GGAUCUCAUACAGAAUCCGTT against D14Ertd500e | inactive: 1.2 |
| GGAAUAGAGAUAUCAGUAATT against Olfr866 | inactive: -0.578 |
| GCGAUUGACUUUUACCGGATT against Mak3 | inactive: -2.78 |
| GGACAAAUUCUCCUUUGACTT against Fkbp4 | inactive: -0.53 |
